Measured values from US20230285442A1, “USE OF OLIGOCHITOSANS AND DERIVATIVES THEREOF FOR NEUTRALIZING VIRAL AGENTS” (priority 2020, published 2023).
Some entries share one result that the patent states for a list of compounds.

Tested on: HIV-89.6
Assay: HIV binding in culture supernatant, total HIV RNA in supernatant
Conditions: 1 mg compound, 35 pg HIV-89.6, 100 μl; in some cases no binding at all
Description: The desired compound in PBS or DMSO was incubated with virus for 30 min and then centrifuged. Total RNA isolated from supernatant was quantified. The assay was done in triplicate.
Medium/blood samples. To ensure uniformity and reproducibility, standards with known viral copy numbers of HIV89.6 (NIH NIAID repository) were prepared. A known amount of virus was spiked into cell culture medium in ten-fold serial dilutions. HIV-1 RNA was extracted using the High Pure viral RNA kit (Ambion). Complementary DNA (cDNA) was synthesized with the SuperScript III cDNA Synthesis Kit (Invitrogen) and amplified and quantified using primers specific for HIV-1 LTR. Real-time PCR amplification was performed in a CFX96™ Real-Time system (Bio-Rad, Hercules, CA). […] HIV-1 specific amplicons were detected using SYBR Green (Bio-Rad). The number of HIV-1 RNA copies in each test template was measured by its threshold cycle (Ct) as determined from the curve of serially diluted standards using data analysis software (Bio-Rad CFX Manager). […] Quantification of HIV-1 RNA in each test sample was back calculated and viral load was expressed as copies/ml. […]
Quantitative real time PCR was performed using BioRad CFX 96 with the known amounts of HIV-1 RNA as standards. The starting quantity of HIV-1 RNA in the samples treated with different compounds was determined using the standard curve and is plotted on the graph. […]

curcumin-glutaryl NCD1 [NCD15] was tested, and the “binding to the virus” value was “less than 20%”.
